PubChem BioAssay AID1508597 – Cure First | 2020
Shown is an unselected part of the about 2,100 reagents, under one of the conditions tested. 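Calls flag viability under 80% in either arm, not effects specific to rucaparib; the reference for percent is not stated.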 Unmarked entries are inactive. Some reagents were tested in more than one well and are listed for each. No sequences are given here. Not stated in the record: the 100% reference.

Purpose: 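Survival screen with siRNA in ovarian cancer cells derived from patients, with or without rucaparib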 (primary screen)
Cell system: human ovarian carcinoma lines grown from tumours: OCI-P5x (papillary serous) and OCI-C5x (clear cell)
Reagent: siRNA pool against human genes, 1.25 pmol siRNA per well
Duration: 72 h or 96 h, depending on the cell culture
Challenge: rucaparib 20 µM (about IC30) or vehicle, present until read-out
Rucaparib or vehicle: Rucaparib
Cell line: OCI-P5x (serous)
Detection: 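ATP luminescence measured at 72 or 96 h according to the culture, then normalised and expressed as percent viability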
Scale: viability, normalised: higher = more viable cells remaining
Hit rule: 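a well counts as a hit if its normalised viability is under 80 percent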
Meaning of the calls: active = viability under 80%; inactive = viability 80% or more

| target gene | technical replicate | viability, normalised (%) |
| --- | --- | --- |
| NFATC1 | 1 | 43.8 (active) |
| NFATC1 | 2 | 53.7 (active) |
| NFATC1 | 3 | 55.4 (active) |
| TBXT | 1 | 52.4 (active) |
| TBXT | 2 | 48.6 (active) |
| TBXT | 3 | 69.8 (active) |
| MAP1B | 1 | 50.8 (active) |
| MAP1B | 2 | 49.3 (active) |
| MAP1B | 3 | 17.8 (active) |
| PRKCH | 1 | 119 |
| PRKCH | 2 | 109 |
| PRKCH | 3 | 108 |
| TTK | 1 | 70.4 (active) |
| TTK | 2 | 64.5 (active) |
| TTK | 3 | 62.7 (active) |
| PDK3 | 1 | 97.7 |
| PDK3 | 2 | 122 |
| PDK3 | 3 | 111 |
| PSENEN | 1 | 79.3 (active) |
| PSENEN | 2 | 80.6 |
| PSENEN | 3 | 82.1 |
| BUB1 | 1 | 76.7 (active) |
| BUB1 | 1 | 72.1 (active) |
| BUB1 | 2 | 80.1 |
| BUB1 | 2 | 74.7 (active) |
| BUB1 | 3 | 52.6 (active) |
| BUB1 | 3 | 90.5 |
| HNRNPM | 1 | 84.9 |
| HNRNPM | 2 | 78.5 (active) |
| HNRNPM | 3 | 51.6 (active) |
| NDEL1 | 1 | 41.5 (active) |
| NDEL1 | 2 | 46.2 (active) |
| NDEL1 | 3 | 40 (active) |
| DNAJC2 | 1 | 58 (active) |
| DNAJC2 | 2 | 53.5 (active) |
| DNAJC2 | 3 | 53.6 (active) |
| SGF29 | 1 | 71.8 (active) |
| SGF29 | 2 | 87.8 |
| SGF29 | 3 | 104 |
| RP2 | 1 | 40.8 (active) |
| RP2 | 2 | 45.9 (active) |
| RP2 | 3 | 54.8 (active) |
| MAPK9 | 1 | 77.6 (active) |
| MAPK9 | 2 | 81.5 |
| MAPK9 | 3 | 66.8 (active) |
| ASNS | 1 | 58 (active) |
| ASNS | 2 | 70.8 (active) |
| ASNS | 3 | 74.9 (active) |
| PDE7A | 1 | 51.2 (active) |
| PDE7A | 2 | 51.9 (active) |
| PDE7A | 3 | 59 (active) |
| TBL1XR1 | 1 | 63.9 (active) |
| TBL1XR1 | 1 | 31.2 (active) |
| TBL1XR1 | 2 | 83.9 |
| TBL1XR1 | 2 | 33.3 (active) |
| TBL1XR1 | 3 | 32.2 (active) |
| TBL1XR1 | 3 | 76.3 (active) |
| RPS6KB2 | 1 | 90.3 |
| RPS6KB2 | 2 | 92.4 |
| RPS6KB2 | 3 | 80.6 |
| RIOX1 | 1 | 59 (active) |
| RIOX1 | 2 | 66.1 (active) |
| RIOX1 | 3 | 75.7 (active) |
| DHX35 | 1 | 49.9 (active) |
| DHX35 | 2 | 76.3 (active) |
| DHX35 | 3 | 76.4 (active) |
| MAP3K7 | 1 | 77 (active) |
| MAP3K7 | 2 | 61.1 (active) |
| MAP3K7 | 3 | 72.7 (active) |
| TADA3 | 1 | 61.1 (active) |
| TADA3 | 2 | 54.6 (active) |
| TADA3 | 3 | 54.9 (active) |
| NME3 | 1 | 74.6 (active) |
| NME3 | 1 | 65.4 (active) |
| NME3 | 2 | 50.4 (active) |
| NME3 | 2 | 67.8 (active) |
| NME3 | 3 | 72.4 (active) |
| NME3 | 3 | 59.8 (active) |

6 successive entries already listed, for reference:
| target gene | technical replicate | viability, normalised (%) |
| --- | --- | --- |
| ASNS | 3 | 74.9 (active) |
| PDE7A | 1 | 51.2 (active) |
| PDE7A | 2 | 51.9 (active) |
| PDE7A | 3 | 59 (active) |
| TBL1XR1 | 1 | 63.9 (active) |
| TBL1XR1 | 1 | 31.2 (active) |
